Results from doi:10.1101/2024.09.20.614208.

Amino acid sequences for entries named in this document (tags omitted).
UniProt Q9UQ35, whole entry: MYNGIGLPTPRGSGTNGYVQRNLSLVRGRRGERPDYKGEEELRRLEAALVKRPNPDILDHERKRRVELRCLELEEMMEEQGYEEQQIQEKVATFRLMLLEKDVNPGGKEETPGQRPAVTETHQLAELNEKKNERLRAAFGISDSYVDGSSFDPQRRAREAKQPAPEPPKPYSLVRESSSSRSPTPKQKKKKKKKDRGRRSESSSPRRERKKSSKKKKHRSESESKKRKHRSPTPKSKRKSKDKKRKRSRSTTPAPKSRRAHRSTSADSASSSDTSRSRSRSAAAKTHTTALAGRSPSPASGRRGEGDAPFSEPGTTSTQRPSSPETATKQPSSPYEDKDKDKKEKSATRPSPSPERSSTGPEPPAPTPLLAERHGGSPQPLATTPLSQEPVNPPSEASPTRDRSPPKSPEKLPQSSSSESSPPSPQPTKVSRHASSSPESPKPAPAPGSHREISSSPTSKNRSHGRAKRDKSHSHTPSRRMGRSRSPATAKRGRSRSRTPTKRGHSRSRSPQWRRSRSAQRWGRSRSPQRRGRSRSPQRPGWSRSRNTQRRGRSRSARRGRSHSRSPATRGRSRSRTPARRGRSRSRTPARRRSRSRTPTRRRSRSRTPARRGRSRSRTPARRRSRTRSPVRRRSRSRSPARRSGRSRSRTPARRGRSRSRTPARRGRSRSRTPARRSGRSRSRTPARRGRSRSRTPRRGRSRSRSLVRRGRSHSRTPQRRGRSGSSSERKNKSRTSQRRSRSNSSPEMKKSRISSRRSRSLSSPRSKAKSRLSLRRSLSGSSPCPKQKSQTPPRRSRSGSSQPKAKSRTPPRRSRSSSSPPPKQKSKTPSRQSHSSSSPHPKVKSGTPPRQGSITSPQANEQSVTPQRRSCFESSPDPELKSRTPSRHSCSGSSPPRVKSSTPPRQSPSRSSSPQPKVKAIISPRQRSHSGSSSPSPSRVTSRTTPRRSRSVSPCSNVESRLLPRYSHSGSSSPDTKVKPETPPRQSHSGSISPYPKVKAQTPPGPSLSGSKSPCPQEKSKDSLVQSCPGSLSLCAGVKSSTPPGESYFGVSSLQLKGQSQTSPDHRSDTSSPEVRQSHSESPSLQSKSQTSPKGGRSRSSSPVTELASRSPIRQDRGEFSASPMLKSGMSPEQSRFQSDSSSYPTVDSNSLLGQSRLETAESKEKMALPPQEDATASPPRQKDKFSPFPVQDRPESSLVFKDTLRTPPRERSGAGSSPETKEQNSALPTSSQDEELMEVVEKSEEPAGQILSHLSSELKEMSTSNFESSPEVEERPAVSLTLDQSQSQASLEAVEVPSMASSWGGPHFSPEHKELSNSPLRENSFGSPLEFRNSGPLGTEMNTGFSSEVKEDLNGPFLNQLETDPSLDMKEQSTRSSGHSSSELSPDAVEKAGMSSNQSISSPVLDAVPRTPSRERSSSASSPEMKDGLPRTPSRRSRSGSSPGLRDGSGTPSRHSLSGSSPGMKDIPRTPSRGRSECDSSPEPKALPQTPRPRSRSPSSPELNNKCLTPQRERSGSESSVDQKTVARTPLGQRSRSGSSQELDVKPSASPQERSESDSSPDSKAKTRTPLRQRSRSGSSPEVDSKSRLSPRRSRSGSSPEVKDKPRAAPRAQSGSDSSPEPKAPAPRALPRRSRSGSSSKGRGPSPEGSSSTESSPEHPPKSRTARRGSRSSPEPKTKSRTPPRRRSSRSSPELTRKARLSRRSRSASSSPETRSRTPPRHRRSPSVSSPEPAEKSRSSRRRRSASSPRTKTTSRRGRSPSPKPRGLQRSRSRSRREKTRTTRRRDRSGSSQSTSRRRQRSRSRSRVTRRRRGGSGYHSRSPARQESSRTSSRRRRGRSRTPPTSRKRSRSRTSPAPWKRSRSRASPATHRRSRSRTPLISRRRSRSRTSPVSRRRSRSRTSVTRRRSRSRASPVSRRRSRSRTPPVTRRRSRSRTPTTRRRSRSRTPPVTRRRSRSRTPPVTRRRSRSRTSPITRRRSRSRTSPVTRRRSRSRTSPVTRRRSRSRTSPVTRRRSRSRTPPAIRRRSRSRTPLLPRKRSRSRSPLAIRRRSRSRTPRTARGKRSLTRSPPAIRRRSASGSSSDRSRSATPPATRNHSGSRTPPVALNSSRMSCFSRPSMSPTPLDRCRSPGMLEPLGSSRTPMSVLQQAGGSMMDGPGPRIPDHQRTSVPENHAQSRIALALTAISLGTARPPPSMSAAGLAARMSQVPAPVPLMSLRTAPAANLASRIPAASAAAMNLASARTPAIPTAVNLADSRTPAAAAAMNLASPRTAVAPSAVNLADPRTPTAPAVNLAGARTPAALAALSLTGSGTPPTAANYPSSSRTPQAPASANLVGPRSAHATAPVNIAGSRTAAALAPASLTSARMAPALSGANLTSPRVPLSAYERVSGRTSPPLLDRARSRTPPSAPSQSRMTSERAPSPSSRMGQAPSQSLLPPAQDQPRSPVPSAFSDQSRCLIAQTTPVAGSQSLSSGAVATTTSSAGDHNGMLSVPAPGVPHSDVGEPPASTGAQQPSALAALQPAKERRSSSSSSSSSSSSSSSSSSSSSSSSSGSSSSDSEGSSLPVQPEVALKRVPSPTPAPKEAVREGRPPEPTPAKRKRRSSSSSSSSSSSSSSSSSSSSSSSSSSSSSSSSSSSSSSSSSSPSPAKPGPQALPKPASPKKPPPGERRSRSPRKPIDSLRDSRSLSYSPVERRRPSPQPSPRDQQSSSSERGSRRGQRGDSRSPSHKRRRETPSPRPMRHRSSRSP

B1: KSHV K8α (protein, UniProt Q2HR82 1-286)
chain: MPRMKDIPTKSSPGTDNSEKDEAVIEEDLSLNGQPFFTDNTDGGENEVSWTSSLLSTYVGCQPPAIPVCETVIDLTAPSQSGAPGDEHLPCSLNAETKFHIPDPSWTLSHTPPRGPHISQQLPTRRSKRRLHRKFEEERLCTKAKQGAGRPVPASVVKVGNITPHYGEELTRGDAVPAAPITPPYPRVQRPAQPTHVLFSPVFVSLKAEVCDQSHSPTRKQGRYGRVSSKAYTRQLQQALEEKDAQLCFLAARLEAHKEQIIFLRDMLMRMCQQPASPTDAPLPPC
B2: KSHV ORF6 (protein, UniProt Q2HRD3 1-1132)
chain: MALKGPQTLEENIGSAAPTGPCGYLYAYVTHNFPIGEASLLGNGYPEAKVFSLPLLHGLTVESDFPLNVKAVHKKIDATTASVKLTSYHREAIVFHNTHLFQPIFQGKGLEKLCRESRELFGFSTFVEQQHKGTLWSPEACPQLPCANEIFMAVIVTEGFKERLYGGKLVPVPSQTTPVHIGEHQAFKIPLYDEDLFGPSRAQELCRFYNPDISRYLHDSIFTGIAQALRVKDVSTVIQASERQFVHDQYKIPKLVQAKDFPQCASRGTDGSTLMVIDSLVAELGMSYGLSFIEGPQDSCEVLNYDTWPIFENCETPDARLRALEVWHAEQALHIGAQLFAANSVLYLTRVAKLPQKNQRGDANMYNSFYLQHGLGYLSEATVKENGASAFKGVPVSALDGSSYTLQHLAYASSFSPHLLARMCYYLQFLPHHKNTNSQSYNVVDYVGTAAPSQMCDLCQGQCPAVCINTLFYRMKDRFPPVLSNVKRDPYVITGTAGTYNDLEILGNFATFREREEEGNPVEDAPKYTYWQLCQNITEKLASMGISEGGDALRTLIVDIPSFVKVFKGIDSTVEAELLKFINCMIKNNYNFRENIKSVHHILQFACNVYWQAPCPVFLTLYYKSLLTVIQDICLTSCMMYEQDNPAVGIVPSEWLKMHFQTMWTNFKGACFDKGAITGGELKIVHQSMFCDLFDTDAAIGGMFAPARMQVRIARAMLMVPKTIKIKNRIIFSNSTGAESIQAGFMKPASQRDSYIVGGPYMKFLNALHKTLFPSTKTSALYLWHKIGQTTKNPILPGVSGEHLTELCNYVKASSQAFEEINVLDLVPDTLTSYAKIKLNSSILRACGQTQFYATTLSCLSPVTQLVPAEEYPHVLGPVGLSSPDEYRVKVAGRSVTIVQSTLKQAVSTNGRLRPIITVPLVVNKYTGSNGNTNVFHCANLGYFSGRGVDRNLRPESVPFKKNNVSSMLRKRHVIMTPLVDRLVKRIVGINSGEFEAEAVKRSVQNVLEDRDNPNLPKTVVLELVKHLGSSCASLTEEDVIYYLGPYAVLGDEVLSLLSTVGQAGVPWTAEGVASVIQDIIDDCELQFVGPEEPCLIQGQSVVEELFPSPGVPSLTVGKKRKIASLLSDLDL

molecular target: serine/arginine repetitive matrix 2 (SRRM2) (human (endogenous in iSLK)) (UniProt Q9UQ35); assay: affinity purification with mass spectrometry

Molecule | binding
KSHV replication and transcription activator (RTA) (from UniProt F5HCV3 1-691) | binds
B1 | binds
B2 | binds

No constants are given. Whether binding was seen depends on the method and setting. Binding seen in cells or lysates may run through a third protein. Here binding means that the protein was enriched with, or labelled near, the bait; the list need not be complete.
